# ± gives the standard deviation of the averaged measurements. Most values lie at the level of the controls, where differences are scatter.
# Tests used:
# Experiment in all cases: level (log10 ratio to DMSO vehicle control); higher = higher biomarker level / cell amount than vehicle control
# [1] = compound: CC(C)(C)C(=O)CC(=O)C(F)(F)C(F)(F)C(F)(F)F [(Heptafluorobutanoyl)pivaloylmethane]; settings: 2200 nM; in DMSO
# Procedure: (§1)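 BioMAP Diversity Plus panel of 12 human primary cell co-culture systems (3C, 4H, LPS, SAg, BT, BF4T, BE3C, CASM3C, HDF3CGF, KF3CT, MyoF, Mphg). Compounds were added 1 h before stimulation and left for 24 h (MyoF 48 h; BT 72 h for soluble read-outs or 6 d for IgG). Biomarkers were read by ELISA, cytotoxicity by SRB, PBMC viability and proliferation by Alamar Blue. Each well value was divided by the mean of 8 DMSO control wells on the same plate and log10 transformed; duplicate blinded samples were tested at 4 concentrations.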
# 1-(Perfluorohexyl)octane = compound: CCCCCCCCC(F)(F)C(F)(F)C(F)(F)C(F)(F)C(F)(F)C(F)(F)F [1-(Perfluorohexyl)octane]; settings: in DMSO
# Procedure: as §1
# [2] = compound: CCN(CCO)S(=O)(=O)C(F)(F)C(F)(F)C(F)(F)C(F)(F)C(F)(F)C(F)(F)C(F)(F)C(F)(F)F [N-Ethyl-N-(2-hydroxyethyl)perfluorooctanesulfonamide]; settings: in DMSO
# Procedure: as §1
# [3] = compound: CN(C(=O)C(F)(F)C(F)(F)C(F)(F)F)[Si](C)(C)C [N-Methyl-N-trimethylsilylheptafluorobutyramide]; settings: 2200 nM; in DMSO
# Procedure: as §1
# [4] = compound: Cc1ccc(S(=O)(=O)OCC(F)(F)C(F)(F)C(F)(F)C(F)(F)C(F)(F)C(F)F)cc1 [1H,1H,7H-Perfluoroheptyl 4-methylbenzenesulfonate]; settings: 2200 nM; in DMSO
# Procedure: as §1
# [5] = compound: FC(F)(F)C(F)(F)C(F)(F)C(F)(F)C(F)(F)C(F)(F)CC1CO1 [3-(Perfluorohexyl)-1,2-epoxypropane]; settings: 2200 nM; in DMSO
# Procedure: as §1
# Heptafluorobutyramide = compound: NC(=O)C(F)(F)C(F)(F)C(F)(F)F [Heptafluorobutyramide]; settings: 2200 nM; in DMSO
# Procedure: as §1
# [6] = compound: NCC(F)(F)C(F)(F)C(F)(F)C(F)(F)C(F)(F)C(F)(F)C(F)(F)F [1H,1H-Perfluorooctylamine]; settings: 2200 nM; in DMSO
# Procedure: as §1
# Octafluoroadipic acid = compound: O=C(O)C(F)(F)C(F)(F)C(F)(F)C(F)(F)C(=O)O [Octafluoroadipic acid]; settings: 2200 nM; in DMSO
# Procedure: as §1
# [7] = compound: O=C(O)C(F)(F)C(F)(F)C(F)(F)C(F)(F)C(F)(F)C(F)(F)C(F)(F)C(F)(F)C(F)(F)C(F)F [11-H-Perfluoroundecanoic acid]; settings: 2200 nM; in DMSO
# Procedure: as §1
# Perfluoroheptanoic acid = compound: O=C(O)C(F)(F)C(F)(F)C(F)(F)C(F)(F)C(F)(F)C(F)(F)F [Perfluoroheptanoic acid]; settings: in DMSO
# Procedure: as §1
# Perfluoropentanoic acid = compound: O=C(O)C(F)(F)C(F)(F)C(F)(F)C(F)(F)F [Perfluoropentanoic acid]; settings: in DMSO
# Procedure: as §1
# [8] = compound: O=C(O)C(F)(F)C(F)(F)C(F)(F)OC(F)(F)F [Perfluoro(4-methoxybutanoic) acid]; settings: 2200 nM; in DMSO
# Procedure: as §1
# [9] = compound: O=S(=O)(O)CCC(F)(F)C(F)(F)C(F)(F)C(F)(F)C(F)(F)C(F)(F)C(F)(F)C(F)(F)F [8:2 Fluorotelomer sulfonic acid]; settings: in DMSO
# Procedure: as §1
# 1H,1H-Heptafluorobutanol = compound: OCC(F)(F)C(F)(F)C(F)(F)F [1H,1H-Heptafluorobutanol]; settings: 2200 nM; in DMSO
# Procedure: as §1
# [10] = compound: OCCC(F)(F)C(F)(F)C(F)(F)C(F)(F)C(F)(F)C(F)(F)F [6:2 Fluorotelomer alcohol]; settings: 2200 nM; in DMSO
# Procedure: as §1
Test System,level (log10) [1],level (log10) (1-(Perfluorohexyl)octane; 740 nM),level (log10) (1-(Perfluorohexyl)octane; 2200 nM),level (log10) ([2]; 2200 nM),level (log10) ([2]; 6700 nM),level (log10) ([2]; 20000 nM),level (log10) [3],level (log10) [4],level (log10) [5],level (log10) (Heptafluorobutyramide),level (log10) [6],level (log10) (Octafluoroadipic acid),level (log10) [7],level (log10) (Perfluoroheptanoic acid; 2200 nM),level (log10) (Perfluoroheptanoic acid; 6700 nM),level (log10) (Perfluoroheptanoic acid; 20000 nM),level (log10) (Perfluoroheptanoic acid; 60000 nM),level (log10) (Perfluoropentanoic acid; 2200 nM),level (log10) (Perfluoropentanoic acid; 6700 nM),level (log10) (Perfluoropentanoic acid; 20000 nM),level (log10) (Perfluoropentanoic acid; 60000 nM),level (log10) [8],level (log10) ([9]; 2200 nM),level (log10) ([9]; 6700 nM),level (log10) ([9]; 20000 nM),level (log10) ([9]; 60000 nM),"level (log10) (1H,1H-Heptafluorobutanol)",level (log10) [10]
LPS:sPGE2,-0.0305 ± 0.012,0.054 ± 0.0085,-0.0235 ± 0.033,-0.037 ± 0.0042,-0.023 ± 0.023,0.07 ± 0.0042,0.037 ± 0.071,0.018 ± 0.037,-0.016 ± 0.0028,-0.022 ± 0.023,-0.0185 ± 0.059,-0.001 ± 0.11,0.0075 ± 0.026,0.026,0.0295 ± 0.005,-0.0185 ± 0.022,-0.0285 ± 0.059,-0.001 ± 0.033,-0.008 ± 0.11,-0.018 ± 0.0028,0.017 ± 0.011,-0.035 ± 0.027,0.0135 ± 0.064,-0.0245 ± 0.0035,-0.078 ± 0.047,-0.293 ± 0.017,0.0115 ± 0.016,0.0245 ± 0.015
LPS:sTNF-alpha,-0.053 ± 0.0085,0.001 ± 0.0028,0.0025 ± 0.013,-0.0015 ± 0.0078,-0.006 ± 0.0028,-0.005 ± 0.0085,-0.0055 ± 0.0035,-0.01 ± 0.025,0.0435 ± 0.026,0.0005 ± 0.0064,-0.003 ± 0.021,0.0065 ± 0.0078,0.008 ± 0.0042,0.0065 ± 0.093,-0.0265 ± 0.054,-0.049 ± 0.0071,-0.0215 ± 0.046,0.006 ± 0.011,0.003 ± 0.021,0.01 ± 0.0071,0.021 ± 0.014,-0.0085 ± 0.026,0.0035 ± 0.0078,0.0095 ± 0.011,-0.006 ± 0.0099,-0.212 ± 0.12,-0.004 ± 0.0042,0.031 ± 0.089
MyoF:CD106/VCAM-1,-0.021 ± 0.018,-0.0135 ± 0.005,-0.002 ± 0.013,-0.031 ± 0.014,-0.0675 ± 0.0064,-0.534 ± 0.053,-0.0185 ± 0.005,-0.001 ± 0.0014,0.0095 ± 0.025,-0.0425 ± 0.036,-0.0255 ± 0.028,-0.0325 ± 0.00071,0.006,0.0095 ± 0.013,-0.013 ± 0.0071,-0.004 ± 0.016,-0.0125 ± 0.015,-0.003 ± 0.025,0.0025 ± 0.005,0.001,-0.001 ± 0.0057,-0.038 ± 0.0057,-0.0085 ± 0.005,-0.0035 ± 0.0021,-0.0325 ± 0.016,-0.084 ± 0.02,-0.0005 ± 0.015,0.003 ± 0.023
MyoF:CXCL8/IL-8,0.0325 ± 0.066,0.0145 ± 0.021,0.0145 ± 0.016,-0.028 ± 0.0028,-0.193 ± 0.011,-0.12 ± 0.022,0.002 ± 0.0099,0.0145 ± 0.03,-0.0075 ± 0.013,0.012 ± 0.042,0.012 ± 0.013,-0.0095 ± 0.005,0.0015 ± 0.0021,0.01 ± 0.023,0.002 ± 0.0042,0.0205 ± 0.005,0.0175 ± 0.035,0.012 ± 0.042,-0.008 ± 0.02,0.01 ± 0.0071,0.024 ± 0.014,0.0155 ± 0.049,-0.05 ± 0.011,-0.0085 ± 0.03,-0.0885 ± 0.046,-0.157 ± 0.016,-0.007 ± 0.034,0.002 ± 0.027
MyoF:Collagen I,-0.014 ± 0.013,0.0085 ± 0.012,0.0155 ± 0.013,0.0225 ± 0.0064,0.042 ± 0.0028,-0.155 ± 0.029,0.0135 ± 0.025,-0.0025 ± 0.018,0.011 ± 0.031,0.0035 ± 0.011,0.0035 ± 0.016,-0.0075 ± 0.018,-0.022 ± 0.024,0.0125 ± 0.028,-0.0225 ± 0.011,-0.006,0.0055 ± 0.043,-0.0095 ± 0.0035,-0.0065 ± 0.0092,-0.008 ± 0.0085,0.0065 ± 0.015,-0.015 ± 0.0042,0.0085 ± 0.023,0.004 ± 0.0042,-0.0265 ± 0.026,-0.024 ± 0.0071,-0.0075 ± 0.018,0.0105 ± 0.033
MyoF:Collagen III,-0.009 ± 0.0071,-0.0025 ± 0.026,0.0065 ± 0.0035,-0.005 ± 0.027,-0.0045 ± 0.022,-0.228 ± 0.17,-0.0065 ± 0.011,-0.0075 ± 0.012,0.0065 ± 0.018,-0.0065 ± 0.026,-0.002 ± 0.0028,0.0025 ± 0.015,-0.0215 ± 0.019,-0.003 ± 0.023,-0.013 ± 0.018,-0.011 ± 0.018,-0.0055 ± 0.0078,-0.009 ± 0.016,-0.001 ± 0.0028,0.0055 ± 0.0021,-0.001 ± 0.0085,-0.0055 ± 0.005,-0.0145 ± 0.035,-0.008 ± 0.017,-0.04 ± 0.031,-0.0355 ± 0.023,0.004 ± 0.0028,-0.004 ± 0.018
MyoF:Collagen IV,-0.048 ± 0.018,0.031 ± 0.025,0.017,-0.0075 ± 0.016,-0.0665 ± 0.013,0.078 ± 0.035,0.0285 ± 0.036,0.0225 ± 0.005,0.0335 ± 0.049,0.007 ± 0.055,0.0015 ± 0.011,0.027 ± 0.034,0.022 ± 0.016,0.012 ± 0.071,-0.0175 ± 0.022,-0.014 ± 0.013,0.0305 ± 0.07,-0.028 ± 0.0071,-0.007 ± 0.025,-0.012 ± 0.016,-0.0025 ± 0.023,0.013 ± 0.047,-0.0035 ± 0.047,-0.0215 ± 0.019,-0.0335 ± 0.036,0.005 ± 0.0099,-0.028 ± 0.0014,0.0155 ± 0.026
MyoF:Decorin,0.0135 ± 0.059,0.014 ± 0.014,0.002,0.0025 ± 0.0064,-0.0095 ± 0.016,-0.085 ± 0.028,0.0055 ± 0.018,0.0235 ± 0.0021,0.013 ± 0.038,-0.0575 ± 0.1,-0.025 ± 0.025,-0.009 ± 0.011,0.021 ± 0.04,0.012 ± 0.033,-0.0015 ± 0.013,0.036 ± 0.0042,0.0505 ± 0.035,-0.013 ± 0.0057,-0.015 ± 0.0028,-0.0125 ± 0.0092,0.005 ± 0.048,-0.0795 ± 0.094,0.0305 ± 0.022,0.0555 ± 0.029,0.024 ± 0.03,-0.001 ± 0.0014,0.0145 ± 0.0064,0.014 ± 0.037
